Hit rate of the full screen: of about 400,000 compounds, about 13,000 (3.2%) were called active. Inconclusive results, whose numbers are uncertain, are shown with a selection of clear calls. The call rests on the fitted dose curve; in most records, active means well fitted cell-killing curve with a large enough effect; inconclusive means small, poorly fitted or top-dose-only effect, or effect the other way; inactive means flat fitted curve, though single readings scatter. Where the call is inconclusive, the potency comes from a doubtful curve fit.
Test: qHTS assay for MDR1-selective chemotherapeutics: Primary screen using the drug-selected MDR subline cells KB-V1; further: nearly all actives have a fitted effect of over 60% in size
Conditions: KB-V1 MDR cells viability, CellTiter-Glo, 72 h; activity change, negative = cytotoxicity: at 46.1 µM (top of the series)
Summary of the method: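 Compound-treated KB-V1 multidrug-resistant cells, 72 h, 37 degrees C; viability by CellTiter-Glo. Fitted qHTS curves give the values.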
On the % scale 0 is the no-effect control and ±100 the full control effect; potency means the concentration at half of the fitted maximal effect.

| SMILES | activity change, negative = cytotoxicity | Potency |
| --- | --- | --- |
| Cc1nn(C)c(C)c1S(=O)(=O)N1CCC(C(=O)NCC2COc3ccccc3O2)CC1 (stereo not given) | inactive: -9.97% | – |
| COc1ccc([C@H]2CC(=O)C=C(c3cccc4c3Oc3ccccc3S4)C2)cc1OC | – | inconclusive: 29.1 µM [cytotoxic, single point] |
| CC(=O)c1cccc(NC(=O)C2CCN(S(=O)(=O)c3ccc(C)cc3)CC2)c1 | – | inconclusive: 18.4 µM [cytotoxic, partial curve, poor fit] |
| O=C(NC1CC1)C1=C[C@H](c2csc3ccccc23)C[C@H](OCc2ccc(CO)cc2)O1 | – | inconclusive: 9.2 µM [cytotoxic, partial curve, poor fit] |
| COC(=O)c1onc(-c2c(C)cc(C)cc2C)c1C(=O)OC | – | inconclusive: 18.4 µM [rising, single point] |
| COc1cccc(NC(=O)COC(=O)C2CC(=O)N(c3ccc(C)cc3)C2)c1 (stereo not given) | – | inconclusive: 29.1 µM [rising, single point] |
| COCCN1Cc2cc3cc(C)ccc3nc2SC1=Nc1cccc(OC)c1 | inactive: 0% | – |
| Cc1cn2c(=O)cc(COc3ccc(NC(=O)COc4ccccc4)cc3)nc2s1 | inactive: 6.37% | – |
| CC(C)C1OC(c2cccc(NC(=O)c3cccs3)c2)OCC1(C)C (stereo not given) | – | inconclusive: 9.2 µM [cytotoxic, partial curve] |
| CSc1ccccc1NC(=O)Nc1ccccc1 | – | inconclusive: 29.1 µM [cytotoxic, single point] |
| Cc1ccc(-c2nn(-c3ccccc3)cc2CN(Cc2ccccc2)C(=O)c2ccco2)o1 | – | inconclusive: 35.5 µM [cytotoxic, single point] |
| COc1ccc(C(=O)NC2CCN(CC(=O)NCc3ccccc3)CC2)cc1 | – | inconclusive: 23.1 µM [cytotoxic, single point] |
| Cc1ccc(NC(=O)COC(=O)CCc2c(C)nc3ncnn3c2C)cc1C | inactive: 1.5% | – |
| Cc1ccccc1CC1(CO)CCCN(C(=O)c2ccccc2Cl)C1 (stereo not given) | – | inconclusive: 14.6 µM [cytotoxic, partial curve] |
| Oc1ccc(Br)cc1/C=N/n1c(C2CCCCC2)n[nH]c1=S | inactive: 22.4% | – |
| O=C(NCC1CCCO1)C(=Cc1cccc([N+](=O)[O-])c1)C(=O)NCC1CCCO1 (stereo not given) | inactive: 1.08% | – |
| Nc1nc2nonc2nc1N | – | inconclusive: 0.517 µM [rising, partial curve, poor fit] |
| Cc1cc(C)c(C#N)c(SCC(=O)N(CCC#N)c2ccc3c(c2)OCCO3)n1 | – | inconclusive: 9.2 µM [cytotoxic, partial curve] |
| C#CCN1N=C(c2ccc(C)cc2)CSC1=O | inactive: 0% | – |
| COc1ccc(N(CC(=O)Nc2ccc(C)c(C)c2)S(=O)(=O)c2c(C)n[nH]c2C)cc1 | – | inconclusive: 18.4 µM [cytotoxic, single point] |
| COC(=O)[C@]12CCCCC=C1N(Cc1ccc(Cl)cc1Cl)C(=O)[C@H](CC(=O)NCc1cccc(C(F)(F)F)c1)C2 | inactive: -8.52% | – |
| CS(=O)(=O)Nc1ccc(C(=O)Nc2ccc3ccccc3c2)cc1 | – | inconclusive: 32.6 µM [cytotoxic, single point] |
| Cc1ccc(-n2c(=O)c3ccc(C(=O)NCc4ccccc4Cl)cc3n(CC(=O)Nc3ccc(C)cc3C)c2=O)cc1 | – | inconclusive: 5.17 µM [rising, partial curve] |

Arranged by length of the SMILES (smallest number first): three of the compounds above.

| SMILES | activity change, negative = cytotoxicity | Potency |
| --- | --- | --- |
| CSc1ccccc1NC(=O)Nc1ccccc1 | – | inconclusive: 29.1 µM [cytotoxic, single point] |
| COC(=O)c1onc(-c2c(C)cc(C)cc2C)c1C(=O)OC | – | inconclusive: 18.4 µM [rising, single point] |
| O=C(NCC1CCCO1)C(=Cc1cccc([N+](=O)[O-])c1)C(=O)NCC1CCCO1 (stereo not given) | inactive: 1.08% | – |

More results follow:

| SMILES | activity change, negative = cytotoxicity | Potency |
| --- | --- | --- |
| CCOC(=O)c1sc(NC(=O)CNCc2cccnc2)c(C(=O)OCC)c1C | – | inconclusive: 23.1 µM [cytotoxic, partial curve, poor fit] |
| CC(=O)Nc1cc(C(=O)N(C)Cc2ccco2)ccc1Sc1ccc(Cl)cc1 | – | active: 2.91 µM |
| CC[C@H]1C(=O)[C@@H](Cc2ccccc2)[C@@H]2CCN3C(=O)CCC[C@H]1[C@H]23 | – | inconclusive: 14.6 µM [cytotoxic, partial curve] |
| Cc1ccc(C(=O)NNC(=O)C(C)Oc2ccc3ccccc3c2)o1 (stereo not given) | inactive: -25.8% | – |
| Cc1ccc(Sc2cc(N3CCOCC3)nc(-c3ccccc3)n2)cc1 | – | inconclusive: 20.6 µM [cytotoxic, single point] |
| CCN1CCN(c2cc(SC(C)C)nc(-c3ccc(OC)cc3)n2)CC1 | – | inconclusive: 11.6 µM [cytotoxic, partial curve, poor fit] |
| CCOC(=O)c1cccc(NC(=O)[C@H](CSCc2ccccc2)N2Cc3ccccc3C2=O)c1 | – | inconclusive: 0.651 µM [cytotoxic, full curve] |
| O=C1OC(/C(=C\Nc2ccccc2)[N+](=O)[O-])c2ccccc21 (stereo not given) | inactive: 13.8% | – |
| CCOC(=O)c1c(NC(=O)c2ccc(F)cc2)sc2c1CCC(CC)C2 (stereo not given) | inactive: 15% | – |
| COc1c2c(c3c(c1OC)c(=O)c1ccccc1n3C)OCO2 | – | active: 13 µM |
| CC1=CC(c2ccc(Cl)cc2)n2nc(NC(=O)CCC(=O)O)nc2N1 (stereo not given) | – | inconclusive: 8.2 µM [rising, partial curve] |
| CC(=C/c1ccccc1)/C=N/n1c(C)n[nH]c1=S | – | inconclusive: 32.6 µM [cytotoxic, single point] |
| CC(=O)Oc1c(-c2ccco2)oc2ccccc2c1=O | – | inconclusive: 14.6 µM [cytotoxic, single point] |
| CCCCN(C(=O)Nc1ccccc1)C1CCS(=O)(=O)C1 (stereo not given) | inactive: -10.7% | – |
| CC(C)NC(=O)Nc1ccc(Br)cc1Cl | – | inconclusive: 8.2 µM [cytotoxic, partial curve] |
| CC1CCCC(C)N1C(=O)c1cc(-c2cccs2)on1 (stereo not given) | – | inconclusive: 29.1 µM [cytotoxic, single point] |
| CC(C)Oc1cccc(C(=O)C2CCCN(Cc3cnc(N4CCOCC4)s3)C2)c1 (stereo not given) | inactive: -8.83% | – |
| CCc1ccc(Nc2nnc(-n3nc(C)cc3C)c3ccccc23)cc1 | inactive: -10.2% | – |
| O=C(CSc1ccc(-c2ccccn2)nn1)Nc1cccc(F)c1 | – | inconclusive: 2.91 µM [cytotoxic, full curve] |
| CS(=O)(=O)c1ccc(NC(=O)c2cccc(S(=O)(=O)N3CCN(Cc4ccccc4)CC3)c2)cc1 | – | inconclusive: 18.4 µM [cytotoxic, single point] |
| Cc1cc(C(=O)NCCC2=CCCCC2)c(C)o1 | inactive: 0.521% | – |
| CC(C)c1c(O)ccc2c1CC[C@H]1C(C)(C)CCC[C@]21C | – | inconclusive: 29.1 µM [cytotoxic, single point] |

From PubChem BioAssay AID1347076 (National Center for Advancing Translational Sciences (NCATS), 2019)
